# Experimental data as given in patent publication US11497813B2, “Bortezomib conjugates and methods using same” (Frank EBETINO et al., priority 2015, dated 2022).
# System: osteoclasts
# Test: Osteoclast formation and bone resorption on bone slices pre-incubated with compound
# Assay type: cell-based, mouse
# Conditions: bone slices, washed after incubation
# Experimental: FIG. 5A is a scheme of an exemplary synthesis of compound BP-Btz1. FIG. 5B is a series of images of bone slices pre-incubated with 1 μM BP-Btz1, Btz, or bisphosphonate (BP) overnight. Drug solutions were removed and bone slices were washed with PBS extensively. […] (BM) cells from UB^G76V-GFP mice were cultured on bone slices in the presence of M-CSF and RANKL for 9 days. Top images (a): GFP^+ cells were observed under a fluorescence microscope and GFP signal intensity was quantified. Middle images (b): bone slices were fixed and subjected to TRAP staining for osteoclasts (OCs). OC #/slice were counted. Bottom images (c): cells were removed from slices. Toluidine blue staining was performed and pit areas/slice were counted. […] The ALP^+ areas were measured by Image J. *P<0.05 vs. Btz-treated cells. […]
# 1. […] Following proteasome inhibitor administration, Ub^G76V accumulates and GFP fluorescence is readily apparent. GFP^+ OCs were detected at 4 and 8 hrs after adding Btz to OC cultures, which disappeared at 24 hrs. […] The number and area of OCs and resorption pits are assessed. The appearance, intensity and distribution of GFP^+ cells on bone slices and plastic surrounding bone slices during OC formation is observed and recorded. […] Area of ALP^+ and mineralized bone nodule, and the expression levels of OB marker genes (ALP, osteocalcin, Runx2) are measured. […]
compound,measurement,value
CC(C)C[C@H](NC(=O)[C@H](Cc1ccccc1)NC(=O)c1cnccn1)B1OCCN(CCOC(=O)NC(P(=O)(O)O)P(=O)(O)O)CCO1 [BP-Btz1],binding to bone matrix,binds to bone matrix
